Test results published in patent publication US9828389B2, “Tetrazolinone compounds and their use as pesticides” (SUMITOMO CHEMICAL COMPANY, LIMITED, priority 2012, dated 2017).
Like-named read-outs stand apart in the source and are kept apart here. Some results were stated once for a whole list of compounds, not compound by compound.

How the values were obtained:
[1] = system: rice blast fungi (Magnaporthe grisea); assay type: in vivo; details: rice (cv; Nipponbare), 6 days in contact with infected seedlings
[2] = system: wheat rust fungi (Puccinia recondita); assay: Wheat rust control test, foliar spray on wheat; assay type: in vivo; details: wheat (cv; Shirogane), foliar spray 200 ppm, inoculated after 5 days, observed after 1+8 days
Description: The spores of wheat rust fungi (Puccinia recondita) were sprinkling-inoculated. After inoculation, the plants were placed under a dark and humid condition at 23° C. for 1 day and were then cultivated at 20° C. under lighting for 8 days and a lesion area was observed.

SMILES | lesion area compared to the lesion area in untreated plants ([1]; foliar spray 200 ppm) | lesion area compared to the lesion area in untreated plants [2] | lesion area compared to the lesion area in untreated plants ([1]; foliar spray 500 ppm)
Cc1cc(-n2nc(C)c(C)c2C)ccc1OCc1c(Cl)cccc1-n1nnn(C)c1=O [Present compound 2, 1-{3-chloro-2-[2-methyl-4-(3,4,5-trimethyl-pyrazol-1-yl)-phenoxymethyl]-phenyl}-4-methyl-1,4-dihydrotetrazole-5-one] | ≤ 30% | ≤ 30% | 
COc1cccc(-n2nnn(C)c2=O)c1COc1ccc(-c2ccn(CC(F)(F)F)n2)cc1C [Present compound 104, 1-(2-{4-{1-(2,2,2-trifluoroethyl)-1H-pyrazol-3-yl)-2-methyl-phenoxymethyl}-3-methoxy-phenyl)-4-methyl-1,4-dihydrotetrazole-5-one] |  |  | ≤ 30%
COc1cccc(-n2nnn(C)c2=O)c1COc1ccc(-n2nc(C)c(C(F)F)c2C)cc1C [Present compound 117, 1-{3-methoxy-2-[2-methyl-4-(4-difluoromethyl-3,5-dimethyl-4-formyl-pyrazol-1-yl)-phenoxymethyl]-phenyl}-4-methyl-1,4-dihydrotetrazole-5-one] |  |  | ≤ 30%
Cc1cc(-c2cc(C(F)(F)F)n(C)n2)c(C)cc1OCc1c(C)cccc1-n1nnn(C)c1=O [Present compound 193, 1-{3-methyl-2-[2,5-dimethyl-4-(1-methyl-5-trifluoromethyl-1H-pyrazol-3-yl)-phenoxymethyl]-phenyl}-4-methyl-, 4-dihydrotetrazole-5-one] | ≤ 30% |  | 
COc1c(C)c(-c2ccc(OCc3c(C)cccc3-n3nnn(C)c3=O)c(Cl)c2)nn1C [Present compound 225, 1-{3-methyl-2-[2-chloro-4-(1,4-dimethyl-5-methoxy-1H-pyrazol-3-yl)-phenoxymethyl]-phenyl}-4-methyl-1,4-dihydrotetrazole-5-one] |  |  | ≤ 30%
CCOc1c(C)c(-c2ccc(OCc3c(Cl)cccc3-n3nnn(C)c3=O)c(C)c2)nn1C [Present compound 234, 1-{3-chloro-2-[2-methyl-4-(1,4-dimethyl-5-ethoxy-1H-pyrazol-3-yl)-phenoxymethyl]-phenyl}-4-methyl-1,4-dihydrotetrazole-5-one] | ≤ 30% |  | 
COc1c(Cl)c(-c2ccc(OCc3c(C)cccc3-n3nnn(C)c3=O)c(C)c2)nn1C [Present compound 295, 1-{2-[4-(4-Chloro-5-methoxy-1-methyl-1H-pyrazol-3-yl)-2-methyl-phenoxymethyl]-3-methyl-phenyl}-4-methyl-1,4-dihydro-tetrazol-5-one] |  |  | ≤ 30%
CCc1cccc(-n2nnn(C)c2=O)c1COc1ccc(-c2nn(C)c(OC)c2Cl)cc1C [Present compound 298, 1-{2-[4-(4-Chloro-5-methoxy-1-methyl-1H-pyrazol-3-yl)-2-methyl-phenoxymethyl]-3-ethyl-phenyl}-4-methyl-, 4-dihydro-tetrazol-5-one] |  |  | ≤ 30%
COc1c(Cl)c(-c2ccc(OCc3c(Cl)cccc3-n3nnn(C)c3=O)c(C)c2)nn1C [Present compound 299, 1-{2-[4-(4-Chloro-5-methoxy-1-methyl-1H-pyrazol-3-yl)-2-methyl-phenoxymethyl]-3-chloro-phenyl}-4-methyl-1,4-dihydro-tetrazol-5-one] |  |  | ≤ 30%
COc1cccc(-n2nnn(C)c2=O)c1COc1ccc(-c2nn(C)c(OC)c2Cl)cc1C [Present compound 300, 1-{2-[4-(4-Chloro-5-methoxy-1-methyl-1H-pyrazol-3-yl)-2-methyl-phenoxymethyl]-3-methoxy-phenyl}-4-methyl-1,4-dihydro-tetrazol-5-one] |  |  | ≤ 30%
